Test results from patent US8809401B2, “Composition with improved skin penetration for transdermal delivery of tolterodine” (priority 2010, dated 2014).

Assay: Skin penetration test (Franz cell)
Format: in vitro ADME
Settings: patch with vs without lidocaine free base, pig skin, up to 42 hr

Compound: CCN(CC)CC(=O)Nc1c(C)cccc1C [lidocaine]
- Effect on skin penetration of tolterodine: effective in promoting the skin penetration of tolterodine
